Results deposited as PubChem BioAssay AID652259 (Drosophila RNAi Screening Center, 2013).
The deposit covers about 22,000 reagents; below is an unselected part of those that have a named target and a result. In the full data, 233 (1.1%) are marked active. 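Light values are raw, unnormalised plate reads; the ratio scores behind the reporter calls were not deposited.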 Unmarked entries are inactive. Names joined by + are all predicted targets of the reagent. Not stated in the record: the amount of reagent, the time to read-out, the dose of the treatment.

- Aim: 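Knock-downs that push a Wingless-driven reporter up or down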 (primary screen)
- Cells: Drosophila clone 8 imaginal disc epithelial cells
- Reagents: long dsRNA against Drosophila genes
- Challenge: pathway stimulated by co-transfected Wingless expression plasmid
- Read-out: 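Firefly luciferase from a tcf-site Wingless reporter, measured alongside co-transfected Renilla luciferase that tracks transfection; pathway stimulated by a Wingless plasmid; the firefly-to-Renilla ratio is not deposited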
- Reading the numbers: firefly reporter light: higher = more Wg reporter light, before normalisation; Renilla control light: higher = more transfected or surviving cells
- Rule for the call: 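Strong candidates differ from their plate mean by at least two out of four per-plate statistical tests; weak candidates meet just one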
- Meaning of the calls: active = candidate regulator (raises or lowers reporter); inactive = not a candidate

Gene,DRSC id,"reporter change call, replicate 1","firefly reporter light, replicate 1","firefly reporter light, replicate 2","Renilla control light, replicate 1","Renilla control light, replicate 2"
Sou (Souji),DRSC04356,,2915,7738,641,2608
CG32647,DRSC19690,,14620,,8500,
CG32647,DRSC19878,,12180,,7189,
CG14072,DRSC02375,,1809,3973,887,2569
CG30427,DRSC04014,,16691,,9441,
CG30427,DRSC04311,,14690,,4980,
CG30427,DRSC04323,,1768,7756,416,2566
Jon99Fii (Jonah 99Fii),DRSC15430,,5891,,3421,
CG15125,DRSC06547,,7209,,2309,
Nnf1a,DRSC06394,,3867,,2578,
Cpsf160 (Cleavage and polyadenylation specificity factor 160),DRSC05968,,10219,,2827,
pnt (pointed),DRSC17028,Wg reporter activity raised (active),38956,,8068,
CG15308,DRSC17995,,16250,,8116,
CG7512,DRSC10863,,4680,,3648,
mr (morula),DRSC04332,,17170,,6419,
mr (morula),DRSC22856,,6.62e5,7.80e5,2.15e5,2.98e5
Tollo,DRSC11305,,6377,,2947,
CG3176 + CR18166 + CG32817,DRSC17271,,2249,,1120,
CG3176 + CR18166 + CG32817,DRSC17282,,2903,,960,
CG3176 + CR18166 + CG32817,DRSC18288,,2248,5324,928,1828
Mipp2 (Multiple inositol polyphosphate phosphatase 2),DRSC18682,,2265,8419,680,2663
CG31104,DRSC14658,,16933,,14386,
pygo (pygopus),DRSC14322,Wg reporter activity lowered (active),998,2117,1193,2119
Kaz-m1 (Kazal-type protease inhibitor m1),DRSC16990,,20377,,15488,
stx (stuxnet),DRSC18442,,15824,,2352,
stx (stuxnet),DRSC18443,,25564,,9719,

In a second layout: results already given.
Gene | DRSC id | reporter change call, replicate 1 | firefly reporter light, replicate 1 | firefly reporter light, replicate 2 | Renilla control light, replicate 1 | Renilla control light, replicate 2
CG7512 | DRSC10863 | – | 4680 | – | 3648 | –
mr (morula) | DRSC04332 | – | 17170 | – | 6419 | –
mr (morula) | DRSC22856 | – | 6.62e5 | 7.80e5 | 2.15e5 | 2.98e5
Tollo | DRSC11305 | – | 6377 | – | 2947 | –
CG3176 + CR18166 + CG32817 | DRSC17271 | – | 2249 | – | 1120 | –
CG3176 + CR18166 + CG32817 | DRSC17282 | – | 2903 | – | 960 | –
CG3176 + CR18166 + CG32817 | DRSC18288 | – | 2248 | 5324 | 928 | 1828
Mipp2 (Multiple inositol polyphosphate phosphatase 2) | DRSC18682 | – | 2265 | 8419 | 680 | 2663
CG31104 | DRSC14658 | – | 16933 | – | 14386 | –

Additional entries follow.
Gene,DRSC id,"reporter change call, replicate 1","firefly reporter light, replicate 1","firefly reporter light, replicate 2","Renilla control light, replicate 1","Renilla control light, replicate 2"
CG4983,DRSC02799,,3456,,1715,
GstD10 (Glutathione S transferase D10),DRSC15346,,9046,,2920,
CG8916,DRSC20120,,18838,,7334,
fl(2)d (female lethal d),DRSC07620,,8189,,2162,
Pgant3 (Polypeptide N-Acetylgalactosaminyltransferase 3),DRSC05942,,8804,,2363,
CG13631,DRSC14632,,3492,8427,2064,3233
Galt (Galactose-1-phosphate uridylyltransferase),DRSC03161,,9015,,3417,
CG9459,DRSC16496,,17184,,5078,
PIG-B (Phosphatidylinositol glycan anchor biosynthesis class B),DRSC08216,,7356,,4692,
PIG-B (Phosphatidylinositol glycan anchor biosynthesis class B),DRSC22598,,5.58e5,5.32e5,1.84e5,1.44e5
Hmt-1 (Heavy metal tolerance factor 1),DRSC15555,,3856,6428,1400,1305
CadN2 (Cadherin-N2),DRSC03062,,2560,9333,1224,5036
CadN2 (Cadherin-N2),DRSC03063,,2633,8054,944,4000
CadN2 (Cadherin-N2),DRSC03064,,2775,8544,842,3746
CG14196,DRSC19551,,13883,,8372,
AOX3 (Aldehyde oxidase 3),DRSC15955,,8891,,4075,
CG32320,DRSC21514,,7.56e5,7.49e5,3.86e5,2.92e5
Mtl (Mig-2-like),DRSC16751,,8812,,3714,
CG42792,DRSC01515,,22948,,9600,
ergic53,DRSC11389,,1257,7152,1264,3527
CG15719,DRSC19685,,24833,,11522,
DUBAI (Deubiquitinating apoptotic inhibitor),DRSC07281,,4186,,1571,
"GluRS-m (Glutamyl-tRNA synthetase, mitochondrial)",DRSC10431,,9410,,3303,
CG13502,DRSC04147,,2436,7657,571,2500
chrb (charybde),DRSC11335,,8038,,4096,
Srg1 (Sting-regulated gene 1),DRSC14640,,29590,,19979,
CG14757,DRSC06492,,3857,7190,632,2211
CG43066,DRSC06927,,5031,,2003,
Fcp3C (Follicle cell protein 3C),DRSC18665,,17586,,12012,
Tmlh (Trimethyllysine hydroxylase),DRSC15563,,15298,,3539,
lectin-24Db,DRSC00553,,15908,,7250,
CG17002,DRSC04978,,6553,,2624,
CG32023,DRSC08946,,5216,,2151,
Su(fu) (Suppressor of fused),DRSC16871,,8189,,2353,
CG12715,DRSC19492,,15360,,8219,
GATAd,DRSC02803,,8773,,2837,
ssp3 (short spindle 3),DRSC02669,,2188,6952,525,3212
ssp3 (short spindle 3),DRSC02670,,1606,6080,864,3680
Gbs-70E (Glycogen binding subunit 70E),DRSC11055,,7949,,3138,
CG30036,DRSC21334,,3.19e5,3.70e5,1.90e5,1.38e5
klg (klingon),DRSC13591,,2812,,1606,
klg (klingon),DRSC16978,,28352,,18539,
CG10011,DRSC14174,,2837,8104,920,1958
Jhbp5 (Juvenile hormone binding protein 5),DRSC14240,,12992,,3644,
CG7963,DRSC16355,,15056,,3205,
stl (stall),DRSC04396,,6092,,2205,
CG32248,DRSC08102,,3427,,1667,
